According to patent US12195506B2, “Immunotherapy with A*01 restricted peptides and combination of peptides against cancers and related methods” (Immatics Biotechnologies GmbH, priority 2018, dated 2025):
For some of these results: Expression values are those of the mRNA of the gene that encodes the peptide; a gene is named only where it was looked up.

Legend:
[1] = system: HLA molecules of primary tumors and normal tissue samples; assay: Identification and relative quantitation of HLA ligands by LC-MS (peptide presentation on tumor versus normal tissue); set-up: species or system human; conditions: for Peptide Presentation on cancer entities: cancer entities on which the peptide was found presented (HLA ligands, LC-MS), abbreviations as in title of Table 8; for presentation on various cancer entities: HLA ligands identified by LC-MS on tumor tissue samples
[2] = system: source genes (mRNA); assay: Expression profiling of genes encoding the peptides (RNAseq, tumor versus normal tissues); set-up: species or system human; conditions: for Gene Expression in tumor samples: Highly over-expressed (++): value = tumor type in which the gene is highly over-expressed compared to a panel of normal tissues; for Gene Expression in tumor samples: very highly over-expressed (+++): value = tumor type in which the gene is very highly over-expressed compared to a panel of normal tissues
[3] = source gene of the peptide, value = tumor type in which the gene is over-expressed compared to a panel of normal tissues

Substance | Peptide Presentation on cancer entities [1] | Gene Expression in tumor samples: Highly over-expressed (++) ([2]; source gene of the peptide) | Gene Expression in tumor samples: over-expressed (+) [2, 3] | other results
1: peptide found in TRPM8 (gene looked up) (TLDSTRTLY; listed as Homo sapiens) [compound 1] | PRCA | GBM |  | Gene Expression in tumor samples: very highly over-expressed (+++) ([2]; source gene of the peptide): PRCA
3: peptide found in SLC6A3 (gene looked up) (FGTTPAAEYF; listed as Homo sapiens) [compound 3] | OSCAR |  | NSCLCsquam, SCLC | Gene Expression in tumor samples: very highly over-expressed (+++) ([2]; source gene of the peptide): RCC
5: peptide found in SLC6A3 (gene looked up) (FMVIAGMPLFY; listed as Homo sapiens) [compound 5] | NSCLCsquam |  | NSCLCsquam | Gene Expression in tumor samples: very highly over-expressed (+++) ([2]; source gene of the peptide): RCC
9: peptide found in CYP4Z1 (gene looked up) (QLDSTLDSY; listed as Homo sapiens) [compound 9] | BRCA |  |  | Gene Expression in tumor samples: very highly over-expressed (+++) ([2]; source gene of the peptide): BRCA
21: peptide found in NMUR2 (gene looked up) (LSSAVNPIIY; listed as Homo sapiens) [compound 21] | MEL |  | UEC | 
22: peptide found in TRPM8 (gene looked up) (VMDTLGLFY; listed as Homo sapiens) [compound 22] | BRCA, MEL, PRCA | PRCA | HCC | 
27: peptide found in LOXL4 (gene looked up) (PSEVPVDSHY; listed as Homo sapiens) [compound 27] | GBM, MEL | MEL | CCC | 
28: peptide found in LOXL4 (gene looked up) (PSEVPVDSHYY; listed as Homo sapiens) [compound 28] | NSCLCother, OC | MEL | CCC | 
94: peptide found in MMP26 (gene looked up) (KPSAVKDSIY; listed as Homo sapiens) [compound 94] |  | PRCA, SCLC |  | Gene Expression in tumor samples: very highly over-expressed (+++) ([2]; source gene of the peptide): UEC
110: peptide found in MMP13 (gene looked up) (IGDKVDAVY; listed as Homo sapiens) [compound 110] |  | HNSCC, NSCLCsquam, OSCAR | NSCLCadeno, UBC | 
118: peptide found in LOXL4 (gene looked up) (LTWAHSAKY; listed as Homo sapiens) [compound 118] |  | MEL | CCC | 
133: peptide found in LOXL4 (gene looked up) (ITDVGPGNY; listed as Homo sapiens) [compound 133] |  | MEL |  | 
152: peptide found in LOXL4 (gene looked up) (YLEDRPLSQ; listed as Homo sapiens) [compound 152] |  | MEL |  | 
153: peptide found in LOXL4 (gene looked up) (HSIEVFTHY; listed as Homo sapiens) [compound 153] |  | MEL |  | 
154: peptide found in LOXL4 (gene looked up) (SIEVFTHY; listed as Homo sapiens) [compound 154] |  | MEL |  | 
193: peptide found in SLC5A4 (gene looked up) (SQNGQLIHY; listed as Homo sapiens) [compound 193] |  | MEL |  | 
227: peptide found in PDE10A (gene looked up) (ESAPKEVSRY; listed as Homo sapiens) [compound 227] |  |  | RCC, UBC | 
231: peptide found in CXCR3 (gene looked up) (LLPLLVMAY; listed as Homo sapiens) [compound 231] |  |  | CLL | 
236: peptide found in IGF2BP1 (gene looked up) (VLDSLLAQY; listed as Homo sapiens) [compound 236] |  |  | GBC, HCC, HNSCC, NSCLCsquam, SCLC | 

Substance | Peptide Presentation on cancer entities [1] | Gene Expression in tumor samples: Highly over-expressed (++) ([2]; source gene of the peptide) | Gene Expression in tumor samples: over-expressed (+) [2, 3] | other results
264: peptide found in CYP2W1 (gene looked up) (YRDPVFVSL; listed as Homo sapiens) [compound 264] |  |  | CRC | 
354: peptide found in HPGDS (gene looked up) (EIIRYIFAY; listed as Homo sapiens) [compound 354] |  |  |  | Gene Expression in tumor samples: over-expressed (+) ([2]; tumor types in which the source gene is over-expressed (+) compared to a panel of normal tissues): AML
378 (TAKAPSTEY; listed as Homo sapiens) [compound 378] | GBC, NSCLCadeno, NSCLCother, NSCLCsquam |  |  | 
379 (SLIIDDTEY; listed as Homo sapiens) [compound 379] | GBC, NSCLCsquam |  |  | 
380 (VACGNNPVY; listed as Homo sapiens) [compound 380] | NSCLCadeno |  |  | 
382 (YEPATMEQY; listed as Homo sapiens) [compound 382] | NSCLCsquam |  |  | 
383 (PPDHAVGRTKY; listed as Homo sapiens) [compound 383] | UBC |  |  | 
384 (RFRSITQSYY; listed as Homo sapiens) [compound 384] | CLL |  |  | 
385 (SANALILTY; listed as Homo sapiens) [compound 385] | BRCA, MEL |  |  | 
388 (YTAHVGYSMY; listed as Homo sapiens) [compound 388] | NSCLCadeno |  |  | 
390 (FSEPFHLIVSY; listed as Homo sapiens) [compound 390] | CLL, MEL |  |  | 
392 (TQHFVQENY; listed as Homo sapiens) [compound 392] | MEL |  |  | 
393 (QVWGGQPVY; listed as Homo sapiens) [compound 393] | MEL |  |  | 
394 (QVPLDCVLY; listed as Homo sapiens) [compound 394] | HNSCC, OSCAR |  |  | 
395 (ILKGGSGTY; listed as Homo sapiens) [compound 395] | MEL |  |  | 
396 (LPDPNVQKY; listed as Homo sapiens) [compound 396] | MEL |  |  | 
397 (NSAINPLIY; listed as Homo sapiens) [compound 397] | NSCLCadeno, RCC, UEC |  |  | 
LSSAVNPIIY (listed as Homo sapiens) [SEQ ID No. 21] |  |  |  | presentation on various cancer entities [1]: breast cancer and prostate cancer
WSDGVPLLY (listed as Homo sapiens) [SEQ ID No. 47] |  |  |  | presentation on various cancer entities [1]: melanoma, non-small cell lung cancer, and ovarian cancer
